# Reference: PubChem BioAssay AID2685 (National Center for Advancing Translational Sciences (NCATS), 2010)
# Some of the results follow. The main result of the screen is listed elsewhere. These columns were measured beside it and carry no call. Compounds called inactive in the main read-out are mostly missing here. Potencies come from curve fits of mixed quality, noted in brackets.
# Test: qHTS Assay for Lipid Storage Modulators in Drosophila S3 Cells;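 on cell number change: cells counted by Cell Tracker Red CMTPX staining in the red channel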
# Conditions: BODIPY lipid droplet fluorescence, 18-24 h; for cell number change: measured here: cell count max response, cells fed with added oleic acid
# Method in brief: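 Drosophila S3 cells loaded with oleic acid (400 uM, as added) and compounds at several concentrations; lipid droplets imaged by 488-nm laser-scanning cytometry, 500–530 nm intensity and object ratio to cell channel. Percent activity normalized to 20 uM Triacsin C.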
# [1] = measured here: lipid fluorescence (Fed channel) AC50, cells fed with added oleic acid
# [2] = measured here: cell number channel AC50, cells fed with added oleic acid
Structure (SMILES),cell number change [%],AC50 [1],AC50 [2]
COc1ccc(-c2cc(C(N)=O)nc(N3CCCCCC3)n2)cc1,-11.1,"5.8 µM [rising, full curve]",
COC(=O)c1ccc(NC(=O)CCN2C(=O)C3C4CCC(C4)C3C2=O)cc1 (stereo not drawn),3.47,,"0.092 µM [rising, partial curve]"
CCc1cccc(NC(=O)Cc2ccc([N+](=O)[O-])cc2)c1,,"16.4 µM [rising, single point]",
COc1ccc(Cl)cc1NC(=O)CN(C)C(=O)c1cc(C)oc1C,-10.9,"20.6 µM [falling, partial curve]",
OC[C@@H](O)[C@H](O)C(/C=N/Nc1ccccc1)=N\Nc1ccccc1,,"6.51 µM [rising, single point]",
CCCCOC(=O)c1ccc(NC(=O)CSc2nnnn2C)cc1,-0.465,,
Cc1ccccc1OCc1nc2c3c(ncn2n1)-c1ccccc1CC31CCCC1,51.8,"6.51 µM [rising, single point]","8.2 µM [rising, partial curve]"
COC(=O)CSc1nnc(-c2cccc(NC(=O)c3ccc(C)cc3)c2)n1C,-17.1,"0.116 µM [rising, single point]",
O=C(c1cc(S(=O)(=O)N2CCOCC2)c(Cl)cc1Cl)N1CCCCC1,1.5,"6.51 µM [rising, single point]",
CC(NC(=O)Nc1cccc([N+](=O)[O-])c1)(C(F)(F)F)C(F)(F)F,-52.5,,"8.2 µM [falling, partial curve]"
O=C(CSc1n[nH]c(=O)n1C1CC1)c1c[nH]c2ccccc12,6.38,,
O=C(CSc1nc2ccccc2c(=O)n1-c1ccc(SC(F)F)cc1)Nc1ccc(N2CCOCC2)cc1,-34.6,,"18.4 µM [falling, single point]"
O=C(Nc1ccc(-c2cnco2)cc1)c1ccc(Cl)cc1,9.25,"0.82 µM [falling, full curve]","0.92 µM [falling, full curve, poor fit]"
CCN(CC)S(=O)(=O)c1ccc(C(=O)OCC(=O)NCc2ccco2)cc1,5.91,,
COc1cc(C[C@@H]2C(=O)OC[C@H]2Cc2ccc(OC)c(OC)c2)ccc1O,-48.3,"0.411 µM [falling, full curve]","6.51 µM [falling, partial curve]"
O=C(c1cnn2c(C(F)F)cc(C3CC3)nc12)N1CCCC1,,"18.4 µM [falling, single point]","0.731 µM [rising, full curve, poor fit]"
Cc1ccc(/C=C/C(=O)OCC(=O)NCc2ccc(Cl)cc2)o1,-32.5,"25.9 µM [falling, single point]","2.91 µM [falling, full curve]"
COc1cc(Cl)c(CN2CCCC(CO)(Cc3ccccc3F)C2)cc1OC (stereo not drawn),-9.34,,
COc1ccc(CCNC(=O)CNC(=O)c2ccc3c(c2)OCO3)cc1OC,21.4,"20.6 µM [rising, partial curve]",
c1ccc(Nc2nc(N3CCNCC3)nc(N3CCOCC3)n2)cc1,24.9,"9.2 µM [rising, partial curve, poor fit]",

Structure (SMILES),cell number change [%],AC50 [1],AC50 [2]
OCCCNCc1ccc(N(c2ccccc2)c2ccccc2)cc1,24.8,,
Cc1cc2c(cc1S(=O)(=O)Nc1ccc(OC(F)(F)F)cc1)OCC(=O)N2,-2.06,"29.1 µM [falling, single point]",
O=C(COC(=O)c1cccnc1Cl)NCC1CCCO1 (stereo not drawn),-15.3,,
Cc1ccc(S(=O)(=O)Nc2nc(C)c(C)s2)cc1,-4.31,"29.1 µM [rising, single point]",
C=CCn1c(SCC(=O)NCc2ccco2)nnc1C1CCCCC1,,,"0.13 µM [rising, full curve, poor fit]"
O=C(Oc1ccccc1/C=C\C(=O)c1cc2ccccc2o1)c1ccccc1,,"18.4 µM [falling, partial curve]",
O=C(NCCc1ccc(Cl)cc1)C1CCC(CNc2c(N3CCCCC3)c(=O)c2=O)CC1 (stereo not drawn),20.4,"5.8 µM [rising, partial curve]",
C=CCSc1ncccc1C(=O)NCCc1ccccc1,1.42,"29.1 µM [falling, single point]",
CCCCCN=Cc1c(C)[nH]n(-c2nc3ccccc3s2)c1=O,7.82,"3.26 µM [rising, single point]",
COc1ccc(/C=N/Nc2nc(-c3ccc(Cl)cc3)cc(C(F)(F)F)n2)c(OC)c1,13,"0.058 µM [rising, full curve, poor fit]",
COC(=O)c1ccc(N=Nc2c(C)[nH]n(-c3ccccc3)c2=O)cc1,-50.3,,"18.4 µM [falling, partial curve, poor fit]"
Cc1ccccc1-c1nnnn1C1CCS(=O)(=O)C1 (stereo not drawn),-26.2,,
N#Cc1ccccc1NC(=O)C(=O)NCC1CCCN1S(=O)(=O)c1cccs1 (stereo not drawn),29.4,,"4.61 µM [rising, full curve, poor fit]"
COc1ccc(C2=NN(C(=O)c3ccco3)C(c3cc4ccccc4nc3Cl)C2)cc1 (stereo not drawn),10,"0.411 µM [rising, full curve]",
C#CCOCCOCCOCCNc1nc(N2CCN(C(=O)[C@H](CCCCN)n3cc([C@@H](N)CC(C)C)nn3)CC2)nc(N2CCN(C(=O)[C@H](Cc3ccc(O)cc3)n3cc([C@@H](N)CC(C)C)nn3)CC2)n1,-11.6,"3.66 µM [falling, full curve, poor fit]","0.0651 µM [falling, full curve, poor fit]"
CCOc1ccc(-c2c(C)n([O-])c3c([n+]2=O)CCCC3)cc1,-12.3,"1.3 µM [falling, full curve, poor fit]",
COc1ccc2nc(Nc3nc(CSc4nnnn4-c4ccccc4)cc(=O)[nH]3)nc(C)c2c1,56.8,"0.411 µM [rising, full curve]","1.3 µM [rising, full curve]"
CC(C)c1nc2ccc(Br)cn2c1NC1CCCC1,-21.3,"0.291 µM [falling, partial curve, poor fit]","2.59 µM [falling, single point]"
CCn1c(SCC(=O)NCc2ccco2)nnc1-c1ccncc1,-11.5,"0.82 µM [falling, full curve, poor fit]",
COc1ccc(N(C(=O)c2snc(C(N)=O)c2N)C(C(=O)NC2CCCC2)c2ccc3ncccc3c2)cc1 (stereo not drawn),-11.1,,"4.61 µM [falling, single point]"

# Fetched by structure from above:
Structure (SMILES),cell number change [%],AC50 [1],AC50 [2]
CCc1cccc(NC(=O)Cc2ccc([N+](=O)[O-])cc2)c1,,"16.4 µM [rising, single point]",
COc1ccc(N(C(=O)c2snc(C(N)=O)c2N)C(C(=O)NC2CCCC2)c2ccc3ncccc3c2)cc1 (stereo not drawn),-11.1,,"4.61 µM [falling, single point]"

# More records follow.

Structure (SMILES),cell number change [%],AC50 [1],AC50 [2]
O=C(NNC(=O)c1ccccc1C(=O)O)c1ccc(O)cc1,0.551,,
COC1CCN(C(=O)C2CCC(=O)N(CCc3cccc(F)c3)C2)CC1 (stereo not drawn),17.9,"0.082 µM [rising, full curve]","6.51 µM [rising, single point]"
O=C(O)c1cc(-c2ccc(Cl)cc2)n(-c2ccccc2)n1,-54.9,"4.11 µM [falling, single point]","14.6 µM [falling, partial curve, poor fit]"
CC(C(=O)Nc1cc(C(F)(F)F)ccc1N1CCOCC1)N1C(=O)C2CC=CCC2C1=O (stereo not drawn),,"0.731 µM [falling, full curve, poor fit]",
Cc1ccc(-c2nc(SCC(=O)Nc3cc(S(=O)(=O)N4CCCCC4)ccc3Cl)n[nH]2)cc1,19.6,"8.2 µM [rising, partial curve, poor fit]",
CNC(=S)N/N=C/c1ccco1,13.1,"0.82 µM [rising, full curve, poor fit]",
Cc1csc(=O)n1CCC(=O)OCc1nnc(-c2ccccc2)o1,26.5,,"1.64 µM [rising, full curve, poor fit]"
OCCCN1c2ccccc2Nc2nnc(-c3ccccc3)cc21,12.2,"29.1 µM [falling, single point]",
COc1ccc(OC)c2nc(-c3ccncc3)ccc12,13.2,"5.8 µM [rising, full curve, poor fit]",
Cc1ccc(C(=O)OCCN(C)Cc2ccccc2)cc1,5.37,"0.92 µM [rising, full curve, poor fit]",
Cc1ccc(NC(=S)NNC(=O)c2cn(C)nc2C)cc1,2.96,"0.517 µM [rising, full curve, poor fit]",
CCCCc1nnc(SCCSc2nnc(CCCC)n2N)n1N,-9.06,"0.92 µM [falling, partial curve]",
COCCn1c(SCc2nc3cc(OC)c(OC)cc3c(=O)[nH]2)nnc1-c1ccncc1,30.2,,"16.4 µM [rising, single point]"
CO/N=C\Cc1oc(=O)c(NC(=O)c2ccccc2)cc1C(=O)OC,,"0.231 µM [rising, full curve, poor fit]","5.8 µM [rising, single point]"
CCOC(=O)Nc1nnc(-c2ccc(OC)c(OC)c2)s1,2.43,"6.51 µM [rising, single point]",
CC(C)c1ccc(OCC(=O)Nc2ccc(S(=O)(=O)Nc3ccccn3)cc2)cc1,-29.5,,
CCCCSc1nc2c(c(C(F)(F)F)c1C#N)CCC2,20.6,"0.58 µM [falling, single point]",
CC(=O)c1cccc(Oc2cc(NN3CCCCC3)c([N+](=O)[O-])cc2[N+](=O)[O-])c1,12.3,,"0.082 µM [rising, full curve, poor fit]"
O=C1CC(N2CCN(c3ccccc3)CC2)C(=O)N1c1ccc(Cl)cc1 (stereo not drawn),4.74,"29.1 µM [rising, single point]",
